These results are taken from article doi:10.1101/2022.07.06.499086.

A negative result means that nothing was seen under these conditions. Protein sequences can lack the tags named with them.

The test system of the data set is T1, BysR (Burkholderia sp. JP2-270).
T1 sequence (looked up): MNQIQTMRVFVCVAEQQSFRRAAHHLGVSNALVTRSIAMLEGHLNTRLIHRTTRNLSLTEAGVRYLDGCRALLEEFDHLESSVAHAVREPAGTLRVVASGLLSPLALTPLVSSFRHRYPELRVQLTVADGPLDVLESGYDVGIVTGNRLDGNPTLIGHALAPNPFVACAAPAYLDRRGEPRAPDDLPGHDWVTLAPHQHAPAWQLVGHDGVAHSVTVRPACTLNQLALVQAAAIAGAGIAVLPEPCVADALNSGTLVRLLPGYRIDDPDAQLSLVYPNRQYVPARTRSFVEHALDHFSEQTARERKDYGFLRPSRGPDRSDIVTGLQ
Nature of the data set: EMSA. The settings on record: residues 1-327; probe letters rebuilt from the primers and the genome. A general note: In EMSA bound probe runs differently from free probe, usually more slowly.

In the case of “CAGTTCCGGCCTTCAGTGCATTCGGCGGCAGCACGTTTTCACCCAGCAACGCTCAATGACTGAAATGGACGTTTCAGCTTCTTGCAGGGGCATTGGTAACGATCGCCACTCAATGCGACCGCGGCTTGGCCGCCGCCGTCGTCCCCGCACGCGGTTTCGCATCGAACTGAACAGAGGAGCACGGCGCGCCGCCGTTTCGCGCGAGCCGAACACATCGGCGCGTGCAATGCGAGAACGCGCGACGAAACGCGCGCCGCGCAAACCGCGCCGGCTCGCCCGCGCTGGCGTTGCGCCGCCGTCCTCAAGCACGCACAACAAGGAAACAAGGAG (double strand) [ambR1 promoter probe 2]”, the binding result is listed as “no binding”.

In the case of “CCTCTGTTCAGTTCGATGCGAAACCGCGTGCGGGGACGACGGCGGCGGCCAAGCCGCGGTCGCATTGAGTGGCGATCGTTACCAATGCCCCTGCAAGAAGCTGAAACGTCCATTTCAGTCATTGAGCGTTGCTGGGTGAAAACGTGCTGCCGCCGAATGCACTGAAGGCCGGAACTGGAAAACCCGGCACCGGCCCGGAGCGGGCACGTTCCCGGCGGATTCAACGAAAAAATCACGATGAAAAAATGAAACTATCCTTTCCATTGAATTTTATCCACGAATACCCCAGCCGCGTATGATAGCGGCGATTTAAAATATCTGCATTTATCCTGTAATTAGTTTTTTAGCCACGCCGCTTGCAGACCAAAAATCAACAAATCTGCAAGCCGTTCACGAACAAAATTCTGGCAGGCCAGATAAATCTGGCCTTTGTTTACCACGAAATTTTGTAATAGTCACCCGAGCACCGCATACCATGGATTTTCGTCCAAGAGGCCTTATTCGAGAGAAGAATCGGCGATTTTCATCACGTC (double strand) [ambR1 promoter probe 3]”, the binding result was “binds”.
